# Literature values as cited in patent US20050013753A1, “Heat-transfer systems” (priority 2003, published 2005).
# At least one structure is not confirmed: it was looked up by name or label, or the drawing left a doubt.
# System: Daphnia magna
smiles,measurement,value
"OCCCO [1,3-Propanediol, 1,3-propanediol]",48 hour EC50,"≥ 48 hour EC50 - Daphnia magna: ,7417 mg/L"
